Measurements reported in PubChem BioAssay AID2685 (National Center for Advancing Translational Sciences (NCATS), 2010).
The other results are listed elsewhere or left out. Shown are side measurements of this screen, not its main read-out; they come without a call. The list favours compounds with an active or inconclusive main result. Words in brackets tell the shape of the fitted curve; partial curves, single points and poor fits give uncertain potencies.

Assay: qHTS Assay for Lipid Storage Modulators in Drosophila S3 Cells;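 for cell number change: cells counted by Cell Tracker Red CMTPX staining in the red channel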
Conditions: BODIPY lipid droplet fluorescence, 18-24 h; for cell number change: measured here: cell count max response, cells fed with added oleic acid
Method in brief: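 Drosophila S3 cells got compounds at several concentrations plus oleic acid (400 uM solution). Laser-scanning cytometry with 488 nm excitation read lipid droplets at 500-530 nm and cells at 575-640 nm. Percent activity was relative to 20 uM Triacsin C.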

[1] = measured here: lipid fluorescence (Fed channel) AC50, cells fed with added oleic acid
[2] = measured here: cell number channel AC50, cells fed with added oleic acid

Row | SMILES | cell number change | AC50 [1] | AC50 [2]
1 | CCc1ccc(N(CC(=O)NCc2cccnc2)S(=O)(=O)c2ccccc2)cc1 | 9.19% | – | –
2 | Cc1cc(C)n(CC(=O)c2ccc(Br)cc2)c(=O)c1C#N | 26.1% | 0.651 µM [falling, single point] | –
3 | CCCCN(Cc1cccs1)S(=O)(=O)c1csc(C(N)=O)c1 | -18.1% | 29.1 µM [rising, single point] | –
4 | COC(=O)c1cccc(C23CC4(C2)[C@H](CN(CC2CCCCC2)[C@@H]4c2ccccc2)C3c2ccccc2)c1 (stereo not given in full) | -64.8% | 16.4 µM [falling, partial curve, poor fit] | 20.6 µM [falling, partial curve]
5 | COc1ccc(C(=O)Nc2cc(-c3ccccc3)nn2-c2ccccc2F)cc1 | 41.2% | 16.4 µM [rising, partial curve] | 18.4 µM [rising, partial curve]
6 | COC(=O)c1ccc(CN2CCCC(C(=O)Nc3ccc(-c4ccn[nH]4)cc3)C2)cc1 (stereo not given) | 49.6% | 18.4 µM [rising, partial curve] | 2.91 µM [rising, full curve]
7 | CC(C)(C)NC(=O)NC(=O)COC(=O)c1ccc(OC(F)(F)F)cc1 | -33.2% | 16.4 µM [falling, single point] | 14.6 µM [falling, single point]
8 | CC1=C(C(=O)OC(C)C)C(c2ccc(Br)s2)NC(=O)N1 (stereo not given) | -18.6% | 16.4 µM [rising, partial curve] | –
9 | CCN1CCN(c2ccc(S(=O)(=O)N3CCOCC3)cc2NC(=O)c2sccc2C)CC1 | 36.2% | 2.91 µM [rising, full curve, poor fit] | 9.2 µM [rising, partial curve, poor fit]
10 | O=S(=O)(Nc1cccc(-c2cn3cccnc3n2)c1)c1ccc(F)cc1 | 15.6% | – | –
11 | O=C(NCc1ccco1)/C(=C/c1cccnc1)NC(=O)c1cccc(Br)c1 | -14.8% | 0.092 µM [falling, full curve, poor fit] | –
12 | O=S(=O)(NC1=NCCC1)c1ccc(F)cc1 | – | 23.1 µM [falling, partial curve] | –
13 | Clc1ccc2oc(-c3cccnc3NCc3ccccc3)nc2c1 | 2.99% | 0.651 µM [rising, partial curve, poor fit] | 0.0461 µM [rising, single point]
14 | CC(=O)N1CCOc2ccc(S(=O)(=O)NCC3CCC(C(=O)Nc4ccc(C)cn4)CC3)cc21 (stereo not given) | -25.4% | 20.6 µM [falling, single point] | 0.184 µM [falling, full curve, poor fit]
15 | COc1cc(NC(=O)c2ccc(Cl)cc2Cl)ccc1-c1cc2ccccc2oc1=O | -13.7% | – | –
16 | COc1ccccc1NC(=O)c1nn(-c2ccccc2)ccc1=O | 41.9% | – | 29.1 µM [rising, single point]
17 | Cc1cc(C)cc(CC2CC(=O)N(c3ccc4c(c3)OCCO4)C2=O)c1 (stereo not given) | 14.5% | 18.4 µM [rising, single point] | –
18 | CCn1nc(NC(=O)COC)c2cc3cccc(C)c3nc21 | 23.4% | – | 0.651 µM [rising, full curve, poor fit]
19 | O=C(NCCc1ccccc1)C1CCN(C(=O)c2sccc2-n2cccc2)CC1 | 43.7% | 16.4 µM [rising, partial curve] | 13 µM [rising, partial curve, poor fit]
20 | Cc1ccc(S(=O)(=O)NCCc2nnc3ccc(SCc4cccnc4)nn23)cc1 | 25.5% | 6.51 µM [rising, single point] | –
21 | COc1cccc(C2CC(c3ccc(Br)cc3)=NN2C(=O)c2ccncc2)c1OC (stereo not given) | -0.701% | 29.1 µM [falling, single point] | –

Row | SMILES | cell number change | AC50 [1] | AC50 [2]
22 | COc1ccc(S(=O)(=O)NCc2ccc(F)cc2)cc1OC | 1.54% | 5.62 µM [falling, single point] | –
23 | NS(=O)(=O)c1ccc(NC(=O)CSc2n[nH]c(=O)n2Cc2ccccc2)cc1 | 8.82% | 3.66 µM [rising, single point] | 6.51 µM [rising, single point]
24 | CCOC(=O)c1cnc(SCC(=O)NNC(=O)c2ccco2)nc1N | 4.35% | – | –
25 | O=C(/C=C/C=C/c1ccccc1)c1ccco1 | 40.4% | 29.1 µM [rising, single point] | 29.1 µM [rising, single point]
26 | N#C/C(=C\c1ccc(F)cc1F)S(=O)(=O)c1ccccn1 | 18.9% | 0.461 µM [falling, single point] | 0.146 µM [falling, full curve, poor fit]
27 | CCC(C)c1ccc(NC(=S)N2CCCC2)cc1 (stereo not given) | -0.867% | – | –
28 | COc1ccc(OC)c(C(C)NC(C)=O)c1 (stereo not given) | 2.1% | 0.00517 µM [falling, full curve, poor fit] | –
29 | CSCCC(NC(=O)c1cccc(C)c1)C(=O)O (stereo not given) | 14.9% | 0.00651 µM [falling, full curve, poor fit] | –
30 | O=C(Nc1cccc(Cl)c1N1CCCCC1)c1ccc(N2CCOCC2)c([N+](=O)[O-])c1 | -1.61% | 0.731 µM [rising, single point] | –
31 | O=C(COc1ccccc1)Nc1nc(-c2cccnc2)cs1 | -4.02% | 0.517 µM [rising, partial curve] | –
32 | O=c1c2ccccc2ncn1C1CCCCC1 | -1.5% | 14.6 µM [rising, partial curve] | –
33 | C/C(=N/O)c1ccc(N2C(=O)C3C4C=CC(C3C2=O)C2C3C(=O)N(c5ccc(/C(C)=N/O)cc5)C(=O)C3C42)cc1 (stereo not given) | 1.47% | 0.0058 µM [falling, full curve, poor fit] | 0.0058 µM [falling, full curve, poor fit]
34 | CCCn1c(CN2CCCCC2C)nc2c1c(=O)n(C)c(=O)n2C (stereo not given) | 3.25% | 0.651 µM [falling, single point] | –
35 | COc1ccc(C(=O)C2CCN(CC(=O)NCc3ccccc3)CC2)cc1 | 8.82% | – | –
36 | Cc1nn(-c2ccccc2)c(C)c1C=O | -6.94% | 0.164 µM [falling, full curve] | –
37 | N/C(=N\OS(=O)(=O)c1cc(Cl)ccc1Cl)c1ccncc1 | -140% | – | 29.1 µM [falling, single point]
38 | O=C(O)CCNS(=O)(=O)c1ccccc1C(F)(F)F | 39.5% | 0.092 µM [falling, full curve] | –
39 | COCCCNC(=O)c1ccc2c(=O)n(Cc3ccc4c(c3)OCO4)c(=S)[nH]c2c1 | -24% | 0.58 µM [rising, single point] | –
40 | CC(C)Cc1nnc(NC(=O)CCC(=O)N2CCOCC2)s1 | 2.35% | 20.6 µM [falling, partial curve] | –
41 | COc1ccc(-c2csc(NC(=O)CS(=O)(=O)c3ccccc3)n2)cc1 | 51.9% | 4.61 µM [rising, partial curve] | 3.26 µM [rising, partial curve]
42 | Cc1cc(C(=O)CSc2nc3ccccc3o2)c(C)n1CC1CCCO1 (stereo not given) | 29.8% | – | –

Row | SMILES | cell number change | AC50 [1] | AC50 [2]
43 | O=C(CN1CCOCC1)Nc1cc([N+](=O)[O-])ccc1Cl | 23.5% | 20.6 µM [rising, single point] | –
44 | COc1cc(/C=N/NC(=S)NCc2ccccc2)ccc1OCC#N | -2.69% | 2.31 µM [rising, partial curve] | –
45 | O=C1CCCN1CC(=O)N1CCCC(Nc2cccc(F)c2)C1 (stereo not given) | -9.41% | – | 6.51 µM [falling, single point]
46 | COc1ccc(-c2ccnc(-c3ccncc3)n2)cc1 | 12% | 4.61 µM [rising, single point] | –
47 | CC(=O)c1ccc(OCc2cc(C(=O)NC(C)c3cnn(C)c3)no2)cc1 (stereo not given) | – | 6.51 µM [falling, single point] | –
48 | COc1ccc(OC)c(C(=O)Cn2cnc3ccccc3c2=O)c1 | -22.9% | – | –
49 | O=C(CNc1cc(S(=O)(=O)N2CCOCC2)ccc1N1CCCC1)N1CCc2ccccc21 | 125% | – | –
50 | COc1cccc(NC(=O)Cn2c(=O)oc3ccccc32)c1 | 4.89% | – | –
51 | O=C(NCCO)c1ccc(Cl)c(Cl)c1 | – | 23.1 µM [falling, single point] | –
52 | CCc1nnc(NC(=O)C(C)Sc2ccccc2)s1 (stereo not given) | 21.7% | 25.9 µM [rising, single point] | –
53 | COc1ccc(C(=O)Nc2ncccc2C)cc1S(=O)(=O)N1CCOCC1 | -21.1% | 0.00461 µM [falling, full curve, poor fit] | –
54 | Cc1ccc2occ(C3NC(C(=O)O)CS3)c(=O)c2c1 (stereo not given) | 23.1% | 23.1 µM [rising, single point] | –
55 | CCOC(=O)C(NC(C)=O)C(=O)Nc1ccc(C(C)C)cc1 (stereo not given) | 36.8% | 0.058 µM [falling, full curve, poor fit] | –
56 | CCCc1nc(-c2ccc(-c3ccc(F)cc3)cc2)no1 | -10.7% | 0.517 µM [falling, full curve, poor fit] | –
57 | Cc1nc(N2CCOCC2)c2cc(-c3ccccc3)sc2n1 | – | 16.4 µM [rising, partial curve] | –
58 | CN(CCC#N)C(=O)COC(=O)C1c2ccccc2Oc2ccccc21 | 13% | 6.51 µM [rising, single point] | –
59 | Cc1ccc2c(c1)CCCN2C(=O)c1ccoc1C | -4.75% | 0.517 µM [falling, full curve] | –
60 | Cn1c(N)c(C(=O)COC(=O)CCC(=O)c2cccs2)c(=O)n(C)c1=O | -8.5% | 2.31 µM [rising, single point] | –
61 | Cc1nnc(SCC(=O)NCc2ccc3c(c2)OCO3)[nH]c1=O | 2.24% | – | –
